Results as given in patent US8518938B2, “c-MET protein kinase inhibitors” (Vertex Pharmaceuticals Incorporated, priority 2008, dated 2013).
Some results were stated once for a whole list of compounds, not compound by compound.

Protein sequences, listed by entry. Tags and fused reporters are not part of them. Residues count along the entry.
UniProt P08581, 25-1390: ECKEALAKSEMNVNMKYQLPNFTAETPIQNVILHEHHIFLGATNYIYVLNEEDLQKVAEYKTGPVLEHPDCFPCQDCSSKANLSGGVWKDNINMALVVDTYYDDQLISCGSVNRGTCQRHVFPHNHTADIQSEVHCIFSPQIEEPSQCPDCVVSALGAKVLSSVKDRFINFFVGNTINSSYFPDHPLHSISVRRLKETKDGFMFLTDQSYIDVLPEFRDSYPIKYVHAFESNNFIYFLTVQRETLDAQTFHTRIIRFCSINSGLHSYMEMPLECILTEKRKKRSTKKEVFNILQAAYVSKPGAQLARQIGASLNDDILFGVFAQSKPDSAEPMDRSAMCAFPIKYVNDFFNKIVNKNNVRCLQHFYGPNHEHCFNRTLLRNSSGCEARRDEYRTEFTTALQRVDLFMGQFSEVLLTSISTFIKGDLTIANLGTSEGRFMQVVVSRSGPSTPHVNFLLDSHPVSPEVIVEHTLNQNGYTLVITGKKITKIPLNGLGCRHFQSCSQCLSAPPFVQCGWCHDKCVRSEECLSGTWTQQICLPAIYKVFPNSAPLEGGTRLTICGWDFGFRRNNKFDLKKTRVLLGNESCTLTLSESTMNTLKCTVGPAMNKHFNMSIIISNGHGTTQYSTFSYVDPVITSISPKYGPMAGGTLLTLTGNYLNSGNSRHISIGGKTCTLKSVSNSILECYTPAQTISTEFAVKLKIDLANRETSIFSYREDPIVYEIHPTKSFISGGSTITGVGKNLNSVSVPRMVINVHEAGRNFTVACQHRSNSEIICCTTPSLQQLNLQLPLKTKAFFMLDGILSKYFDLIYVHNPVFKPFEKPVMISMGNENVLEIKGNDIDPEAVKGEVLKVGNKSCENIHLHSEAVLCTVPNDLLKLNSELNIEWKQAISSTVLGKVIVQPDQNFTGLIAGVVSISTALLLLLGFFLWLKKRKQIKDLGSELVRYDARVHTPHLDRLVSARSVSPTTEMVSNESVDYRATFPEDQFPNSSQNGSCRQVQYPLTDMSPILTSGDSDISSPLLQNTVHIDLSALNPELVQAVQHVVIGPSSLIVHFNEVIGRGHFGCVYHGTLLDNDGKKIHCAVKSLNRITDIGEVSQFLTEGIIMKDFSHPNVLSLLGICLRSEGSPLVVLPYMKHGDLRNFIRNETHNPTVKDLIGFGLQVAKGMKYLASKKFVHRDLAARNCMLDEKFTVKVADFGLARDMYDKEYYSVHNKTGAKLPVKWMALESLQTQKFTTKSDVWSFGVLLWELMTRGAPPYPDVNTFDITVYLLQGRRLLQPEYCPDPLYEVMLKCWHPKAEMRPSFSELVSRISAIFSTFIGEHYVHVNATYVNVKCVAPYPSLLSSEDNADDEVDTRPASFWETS

Biological target: T1, c-Met (Homo sapiens, UniProt P08581)
T1 construct: is a human gastric carcinoma known to overexpress c-Met, which is constitutively active; host or cells: Snu5 human gastric carcinoma cells transduced with a 6xAP1-luciferase-PEST reporter (Snu5-AP1-Luc-Pest)
Assay: Inhibition of c-Met activity in Snu5 gastric carcinoma cells (Snu5-AP1-Luc-Pest luciferase signal)
Type: cell-based
Conditions: luciferase signal (Steady-Glo), 6 hours incubation

CCCn1cc(-c2cnc(N)c(-c3nnnn3-c3ccc(OC[C@@H]4CCNC4)c(F)c3F)c2)cn1 [Compound 107]
IC50: ≤ 500 nM

CNCCCCOc1ccc(-n2nnnc2-c2cc(-c3cnn(C4CCOCC4)c3)cnc2N)c(F)c1F [Compound 138]
IC50: ≤ 500 nM

CC(C)Cn1cc(-c2cnc(N)c(-c3nnnn3-c3ccc(OCCCN(C)C)c(F)c3F)c2)cn1 [Compound 48]
IC50: ≤ 500 nM

Nc1ncc(-c2cnn(C3CCOCC3)c2)cc1-c1nnnn1-c1ccc(OCCCCN2CCCCC2)c(F)c1F [Compound 174]
IC50: ≤ 500 nM

CNC1CCC(Oc2ccc(-n3nnnc3-c3cc(-c4cnn(CCC(C)C)c4)cnc3N)c(F)c2F)CC1 (stereo not shown) [Compound 130]
IC50: ≤ 500 nM

Cn1cc(-c2cnc(N)c(-c3nnnn3-c3ccc(OCCCCN4CCCC4)c(F)c3F)c2)cn1 [Compound 161]
IC50: ≤ 500 nM

Cn1cc(-c2cnc(N)c(-c3nnnn3-c3ccc(OCCCN4CCCC4)c(F)c3F)c2)cn1 [Compound 158]
IC50: ≤ 500 nM

Cc1csc(-c2cnc(N)c(-c3nnnn3-c3ccc(OCCN4CCOCC4)c(F)c3F)c2)c1 [Compound 63]
IC50: ≤ 500 nM

CC(C)CCn1cc(-c2cnc(N)c(-c3nnnn3-c3ccc(OCC4CCNCC4)c(F)c3F)c2)cn1 [Compound 113]
IC50: ≤ 500 nM

CC(C)Cn1cc(-c2cnc(N)c(-c3nnnn3-c3ccc(OCCN4CCCC4)c(F)c3F)c2)cn1 [Compound 28]
IC50: ≤ 500 nM

CNCCCOc1ccc(-n2nnnc2-c2cc(-c3cnn(CCC(C)C)c3)cnc2N)c(F)c1F [Compound 38]
IC50: ≤ 500 nM

Cn1cc(-c2cnc(N)c(-c3nnnn3-c3ccc(OCCCCN4CCOCC4)c(F)c3F)c2)cn1 [Compound 160]
IC50: ≤ 500 nM

Cc1csc(-c2cnc(N)c(-c3nnnn3-c3ccc(N4CCNCC4)c(F)c3F)c2)c1 [Compound 99]
IC50: ≤ 500 nM
